Results from patent publication US20120082692A1.
These are yes or no findings as the source states them, for the method shown. For part of these data: Binding can be weak; no strength is given.

Columns and labels:
[1] = target: HLA-A*2402 (human); assay: T2-A24 cell HLA-A*2402 surface expression assay, mAb 0041HA staining; grade of relative affinity
[2] = target: HLA-A*2402 (human); assay: T2-A24 cell HLA-A*2402 surface expression assay, mAb 0041HA staining
[3] = target: HLA-A*2402 (human); assay: condition: RA > 100 (peptide tested from 100 µM to 0.1 µM); T2-A24 cell surface HLA-A*2402 expression after 16 h with peptide, stained with mAb 0041HA; relative affinity vs reference peptide … (SEQ ID NO: 111)

Binder	binding [1]	binding [2]	binding [3]
PYGCLLDHV [Her2/neu 802]	binds	binds	
PYGVLLKTH [TERT 403]			no binding
PYDGIPARE [Her2/neu 922]			no binding
RYEFLWGPR [MAGE 261]			no binding
PYNYLSTDV [Her2/neu 300]			no binding
